Measured values as given in the supplement of paper PMC12819154, “High-throughput peptide-centric local stability assay extends protein–ligand identification to membrane proteins, tissues and bacteria” (Nature Structural & Molecular Biology, 2025).
The list shows a part of the results. Most values lie at the level of the controls, where differences are scatter.

Protein sequences, listed by entry. Tags and fused reporters are not part of them. Lines headed by an entry give the natural chain unless they say otherwise; changes in a name come on top.
UniProt Q8NI08: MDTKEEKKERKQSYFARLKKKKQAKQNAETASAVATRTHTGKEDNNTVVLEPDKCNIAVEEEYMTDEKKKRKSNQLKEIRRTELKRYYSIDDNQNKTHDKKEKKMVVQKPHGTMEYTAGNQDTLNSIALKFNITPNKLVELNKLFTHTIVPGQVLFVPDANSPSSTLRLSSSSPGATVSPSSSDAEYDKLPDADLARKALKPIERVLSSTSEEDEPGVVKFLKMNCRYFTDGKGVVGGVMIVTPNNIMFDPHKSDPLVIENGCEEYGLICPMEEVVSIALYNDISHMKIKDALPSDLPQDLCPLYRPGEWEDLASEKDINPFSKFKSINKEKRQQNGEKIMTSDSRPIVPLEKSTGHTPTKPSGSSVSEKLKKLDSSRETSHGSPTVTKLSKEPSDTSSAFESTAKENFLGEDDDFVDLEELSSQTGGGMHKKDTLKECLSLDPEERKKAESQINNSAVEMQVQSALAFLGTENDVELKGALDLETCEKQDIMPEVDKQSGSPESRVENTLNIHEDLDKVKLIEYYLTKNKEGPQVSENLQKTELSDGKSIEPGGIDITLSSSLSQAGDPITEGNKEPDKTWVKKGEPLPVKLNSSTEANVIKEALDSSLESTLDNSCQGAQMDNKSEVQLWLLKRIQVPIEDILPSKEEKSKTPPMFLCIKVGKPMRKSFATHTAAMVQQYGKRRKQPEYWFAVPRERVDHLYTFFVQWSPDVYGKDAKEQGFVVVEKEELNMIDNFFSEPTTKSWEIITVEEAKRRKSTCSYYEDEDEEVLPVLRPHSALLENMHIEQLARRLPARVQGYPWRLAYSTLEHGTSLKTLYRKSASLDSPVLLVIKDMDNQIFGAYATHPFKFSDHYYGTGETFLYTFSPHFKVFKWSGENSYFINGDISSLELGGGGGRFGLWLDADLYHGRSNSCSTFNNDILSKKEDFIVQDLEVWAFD
UniProt Q8NE65: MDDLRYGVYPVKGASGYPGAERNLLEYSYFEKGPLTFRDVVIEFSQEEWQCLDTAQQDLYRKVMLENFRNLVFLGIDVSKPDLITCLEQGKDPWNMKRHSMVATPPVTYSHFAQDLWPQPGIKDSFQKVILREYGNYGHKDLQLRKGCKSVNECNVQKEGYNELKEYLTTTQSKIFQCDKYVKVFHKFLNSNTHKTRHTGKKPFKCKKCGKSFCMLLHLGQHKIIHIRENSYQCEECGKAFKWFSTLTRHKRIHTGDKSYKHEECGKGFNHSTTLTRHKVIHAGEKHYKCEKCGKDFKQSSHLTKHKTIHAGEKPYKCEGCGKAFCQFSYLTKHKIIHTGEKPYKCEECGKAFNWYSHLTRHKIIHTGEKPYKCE
UniProt Q8NEU8: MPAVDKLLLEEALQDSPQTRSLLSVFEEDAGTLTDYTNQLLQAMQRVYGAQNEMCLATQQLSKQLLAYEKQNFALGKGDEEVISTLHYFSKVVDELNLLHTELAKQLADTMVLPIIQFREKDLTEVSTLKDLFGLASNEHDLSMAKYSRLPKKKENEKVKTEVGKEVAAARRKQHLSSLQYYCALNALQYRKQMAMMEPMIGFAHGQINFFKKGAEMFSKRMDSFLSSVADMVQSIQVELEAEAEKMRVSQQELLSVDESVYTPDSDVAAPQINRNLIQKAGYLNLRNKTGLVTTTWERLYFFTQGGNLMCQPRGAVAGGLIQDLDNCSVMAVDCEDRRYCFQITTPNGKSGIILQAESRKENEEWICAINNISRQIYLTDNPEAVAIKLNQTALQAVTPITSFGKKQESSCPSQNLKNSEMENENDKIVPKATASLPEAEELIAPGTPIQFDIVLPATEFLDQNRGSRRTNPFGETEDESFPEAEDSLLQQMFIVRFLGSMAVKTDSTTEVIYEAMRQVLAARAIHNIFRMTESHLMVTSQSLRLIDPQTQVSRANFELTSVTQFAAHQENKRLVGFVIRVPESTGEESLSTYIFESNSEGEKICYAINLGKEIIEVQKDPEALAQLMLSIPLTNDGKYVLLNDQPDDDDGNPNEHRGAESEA
UniProt Q8N300: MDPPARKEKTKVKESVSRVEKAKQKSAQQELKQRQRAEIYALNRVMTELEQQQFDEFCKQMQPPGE
UniProt Q8NBN7: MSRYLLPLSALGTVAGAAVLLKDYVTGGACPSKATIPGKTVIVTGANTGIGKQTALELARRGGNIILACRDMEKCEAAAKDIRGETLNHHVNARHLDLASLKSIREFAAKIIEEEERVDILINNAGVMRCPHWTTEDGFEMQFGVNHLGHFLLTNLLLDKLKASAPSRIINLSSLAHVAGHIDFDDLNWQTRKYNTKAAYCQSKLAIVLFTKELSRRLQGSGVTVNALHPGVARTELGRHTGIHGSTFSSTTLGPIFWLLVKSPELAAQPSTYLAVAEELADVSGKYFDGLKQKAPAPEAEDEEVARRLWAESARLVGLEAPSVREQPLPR
UniProt Q8N5J2: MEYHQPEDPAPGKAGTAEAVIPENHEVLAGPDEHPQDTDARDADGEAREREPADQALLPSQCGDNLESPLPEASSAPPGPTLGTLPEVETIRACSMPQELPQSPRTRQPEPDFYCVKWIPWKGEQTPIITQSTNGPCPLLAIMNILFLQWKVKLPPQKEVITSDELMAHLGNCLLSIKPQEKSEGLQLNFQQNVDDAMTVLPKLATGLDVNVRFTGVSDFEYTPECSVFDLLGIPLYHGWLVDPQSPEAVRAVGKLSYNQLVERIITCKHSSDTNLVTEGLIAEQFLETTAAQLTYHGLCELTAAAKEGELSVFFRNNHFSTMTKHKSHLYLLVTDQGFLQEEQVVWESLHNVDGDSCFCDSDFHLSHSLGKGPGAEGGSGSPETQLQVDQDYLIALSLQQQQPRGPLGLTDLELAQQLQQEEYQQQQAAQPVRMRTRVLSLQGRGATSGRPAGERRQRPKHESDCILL
UniProt Q8N2Y8: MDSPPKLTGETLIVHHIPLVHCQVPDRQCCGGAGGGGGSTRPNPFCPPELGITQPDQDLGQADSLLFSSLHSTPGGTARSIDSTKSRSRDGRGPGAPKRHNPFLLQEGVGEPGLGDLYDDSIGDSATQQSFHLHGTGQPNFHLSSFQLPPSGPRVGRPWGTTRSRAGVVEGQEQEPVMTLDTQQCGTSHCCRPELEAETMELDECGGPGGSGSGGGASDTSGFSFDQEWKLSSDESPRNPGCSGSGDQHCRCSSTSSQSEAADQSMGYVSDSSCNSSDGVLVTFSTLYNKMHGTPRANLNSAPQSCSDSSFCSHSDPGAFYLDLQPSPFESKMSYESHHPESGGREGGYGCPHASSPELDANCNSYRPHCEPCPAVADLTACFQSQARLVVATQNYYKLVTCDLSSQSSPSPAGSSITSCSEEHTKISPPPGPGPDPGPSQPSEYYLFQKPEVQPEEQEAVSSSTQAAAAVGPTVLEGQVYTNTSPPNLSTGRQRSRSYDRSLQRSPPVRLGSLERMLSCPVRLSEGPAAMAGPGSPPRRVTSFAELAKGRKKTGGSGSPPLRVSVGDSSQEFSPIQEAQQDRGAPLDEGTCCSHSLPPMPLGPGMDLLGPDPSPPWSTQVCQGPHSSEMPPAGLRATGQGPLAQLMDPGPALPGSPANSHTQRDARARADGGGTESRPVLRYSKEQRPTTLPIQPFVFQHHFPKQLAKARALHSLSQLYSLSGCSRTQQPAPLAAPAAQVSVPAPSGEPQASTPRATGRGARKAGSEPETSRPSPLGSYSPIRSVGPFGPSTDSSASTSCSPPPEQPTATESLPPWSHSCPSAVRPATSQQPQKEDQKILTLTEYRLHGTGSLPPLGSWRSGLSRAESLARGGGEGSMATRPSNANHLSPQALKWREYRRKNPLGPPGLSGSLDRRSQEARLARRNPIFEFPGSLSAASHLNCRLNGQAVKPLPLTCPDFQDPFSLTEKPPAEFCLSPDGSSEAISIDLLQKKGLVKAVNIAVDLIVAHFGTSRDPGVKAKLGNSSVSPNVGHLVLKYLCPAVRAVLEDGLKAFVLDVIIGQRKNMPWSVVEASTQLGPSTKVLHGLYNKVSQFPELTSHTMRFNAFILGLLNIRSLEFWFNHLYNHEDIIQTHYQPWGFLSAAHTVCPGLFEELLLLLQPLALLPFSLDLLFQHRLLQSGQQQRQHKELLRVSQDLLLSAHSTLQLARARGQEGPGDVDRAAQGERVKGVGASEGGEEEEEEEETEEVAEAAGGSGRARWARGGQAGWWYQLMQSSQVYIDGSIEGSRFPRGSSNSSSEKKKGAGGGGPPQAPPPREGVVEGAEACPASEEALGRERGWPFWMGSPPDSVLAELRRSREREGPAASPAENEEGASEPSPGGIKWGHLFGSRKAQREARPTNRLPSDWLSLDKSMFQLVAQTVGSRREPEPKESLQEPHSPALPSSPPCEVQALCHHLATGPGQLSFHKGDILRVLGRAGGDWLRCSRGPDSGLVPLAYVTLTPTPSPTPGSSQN
UniProt Q8N3E9: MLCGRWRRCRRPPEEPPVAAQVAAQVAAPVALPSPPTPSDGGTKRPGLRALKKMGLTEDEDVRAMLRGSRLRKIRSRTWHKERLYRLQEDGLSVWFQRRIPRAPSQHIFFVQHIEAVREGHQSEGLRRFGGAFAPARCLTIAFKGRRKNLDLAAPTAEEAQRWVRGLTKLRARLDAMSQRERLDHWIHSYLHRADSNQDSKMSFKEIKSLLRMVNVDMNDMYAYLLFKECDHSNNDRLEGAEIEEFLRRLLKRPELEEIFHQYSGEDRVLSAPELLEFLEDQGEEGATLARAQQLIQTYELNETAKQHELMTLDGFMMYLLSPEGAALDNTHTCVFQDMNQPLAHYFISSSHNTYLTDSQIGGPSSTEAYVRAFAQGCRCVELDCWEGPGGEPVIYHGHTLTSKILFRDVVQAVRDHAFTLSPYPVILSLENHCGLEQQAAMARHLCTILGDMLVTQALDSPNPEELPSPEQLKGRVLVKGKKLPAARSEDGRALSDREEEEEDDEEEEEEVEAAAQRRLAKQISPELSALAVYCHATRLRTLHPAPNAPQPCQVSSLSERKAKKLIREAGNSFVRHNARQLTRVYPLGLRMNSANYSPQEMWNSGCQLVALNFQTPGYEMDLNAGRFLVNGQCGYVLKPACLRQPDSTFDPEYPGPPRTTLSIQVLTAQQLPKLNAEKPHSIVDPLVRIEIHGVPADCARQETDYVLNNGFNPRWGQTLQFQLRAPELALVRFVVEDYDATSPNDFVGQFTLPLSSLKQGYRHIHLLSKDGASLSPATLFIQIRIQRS
UniProt Q8N196: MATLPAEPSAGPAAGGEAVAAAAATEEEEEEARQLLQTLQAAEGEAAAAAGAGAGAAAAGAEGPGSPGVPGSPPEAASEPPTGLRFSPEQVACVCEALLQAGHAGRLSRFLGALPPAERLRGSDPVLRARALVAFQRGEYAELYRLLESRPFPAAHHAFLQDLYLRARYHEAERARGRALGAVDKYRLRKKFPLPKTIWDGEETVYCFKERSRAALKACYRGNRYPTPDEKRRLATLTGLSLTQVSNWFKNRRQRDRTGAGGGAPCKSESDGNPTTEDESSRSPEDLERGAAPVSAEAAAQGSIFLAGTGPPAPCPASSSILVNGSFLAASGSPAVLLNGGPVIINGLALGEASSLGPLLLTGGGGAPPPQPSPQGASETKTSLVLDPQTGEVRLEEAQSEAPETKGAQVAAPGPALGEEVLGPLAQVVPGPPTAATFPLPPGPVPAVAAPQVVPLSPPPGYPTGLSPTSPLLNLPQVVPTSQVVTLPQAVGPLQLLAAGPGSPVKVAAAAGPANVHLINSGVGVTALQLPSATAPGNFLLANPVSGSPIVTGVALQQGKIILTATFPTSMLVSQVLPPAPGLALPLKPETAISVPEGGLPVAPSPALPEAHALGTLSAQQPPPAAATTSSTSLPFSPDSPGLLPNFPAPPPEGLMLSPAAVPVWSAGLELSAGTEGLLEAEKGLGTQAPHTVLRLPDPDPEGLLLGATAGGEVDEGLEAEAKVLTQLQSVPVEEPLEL
UniProt Q8NHZ8, whole entry: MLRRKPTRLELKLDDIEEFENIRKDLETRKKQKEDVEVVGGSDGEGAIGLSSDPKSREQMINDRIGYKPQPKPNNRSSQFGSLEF
UniProt Q8NHP1: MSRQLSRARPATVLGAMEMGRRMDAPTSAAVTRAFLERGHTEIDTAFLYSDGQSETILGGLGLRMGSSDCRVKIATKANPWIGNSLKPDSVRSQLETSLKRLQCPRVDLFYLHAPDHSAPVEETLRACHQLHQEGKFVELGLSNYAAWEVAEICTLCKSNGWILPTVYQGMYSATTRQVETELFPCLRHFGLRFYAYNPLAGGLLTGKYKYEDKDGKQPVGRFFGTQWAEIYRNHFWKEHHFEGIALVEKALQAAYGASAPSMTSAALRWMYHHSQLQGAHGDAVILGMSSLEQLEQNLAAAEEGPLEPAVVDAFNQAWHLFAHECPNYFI
UniProt Q8N7B6: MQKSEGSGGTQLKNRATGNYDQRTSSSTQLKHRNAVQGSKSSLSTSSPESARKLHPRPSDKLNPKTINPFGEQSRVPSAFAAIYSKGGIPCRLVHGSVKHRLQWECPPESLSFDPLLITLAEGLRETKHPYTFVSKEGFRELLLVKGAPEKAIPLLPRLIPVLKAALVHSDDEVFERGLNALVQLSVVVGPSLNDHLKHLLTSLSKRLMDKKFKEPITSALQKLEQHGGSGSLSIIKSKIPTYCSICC

compound: Cc1nc(Nc2ncc(C(=O)Nc3c(C)cccc3Cl)s2)cc(N2CCN(CCO)CC2)n1 [dasatinib]; test: log2 fold change of tryptic peptide abundance, ligand vs vehicle (limited proteolysis) (log2 ratio); higher = more trypsin-susceptible (destabilized); settings: ligand concentration: 5 uM; sample: K562 cleared lysate

| Target | log2 fold change |
| --- | --- |
| NCOA7 (peptide sequence: QNAETASAVATR, peptide start residue: 26) (UniProt Q8NI08) | 0.123 |
| UniProt Q8NE65 (peptide sequence: GASGYPGAER, peptide start residue: 13) | -0.133 |
| APPL2 (peptide sequence: VKTEVGKEVAAAR, peptide start residue: 159) (UniProt Q8NEU8) | -0.151 |
| INO80E (peptide sequence: MPPPTILSTVPR, peptide start residue: 208) (UniProt Q8NBZ0) | 0.135 |
| SPC24 (peptide sequence: ELEELKEIEADLER, peptide start residue: 107) (UniProt Q8NBT2) | 0.364 |
| UniProt Q8NDB6 (peptide sequence: HRDHMAPYAVGR, peptide start residue: 98) | -0.52 |
| SVBP (peptide sequence: AEIYALNR, peptide start residue: 37) (UniProt Q8N300) | -0.00065 |
| RDH13 (peptide sequence: QKAPAPEAEDEEVARR, peptide start residue: 293) (UniProt Q8NBN7) | -0.349 |
| STK40 (peptide sequence: GDQGIESQEER, peptide start residue: 74) (UniProt Q8N2I9) | -0.41 |
| CCNY (peptide sequence: SLFINHHPPGQIAR, peptide start residue: 83) (UniProt Q8ND76) | -0.174 |
| MINDY1 (peptide sequence: LSYNQLVER, peptide start residue: 256) (UniProt Q8N5J2) | -0.1 |
| RUSC2 (peptide sequence: NPGCSGSGDQHCR, peptide start residue: 239) (UniProt Q8N2Y8) | 1.48 |
| UniProt Q8NBE8 (peptide sequence: SLIYNALNPMHK, peptide start residue: 254) | 0.177 |
| KBTBD8 (peptide sequence: SCVEKGPSNTNGCTQR, peptide start residue: 264) (UniProt Q8NFY9) | -0.66 |
| VPS8 (peptide sequence: FSYIDMDKELEFK, peptide start residue: 36) (UniProt Q8N3P4) | 0.222 |
| UniProt Q8N5G2 (peptide sequence: KHNLGINNNNILQPVDSK, peptide start residue: 265) | 0.388 |
| PLCD3 (peptide sequence: APSQHIFFVQHIEAVR, peptide start residue: 103) (UniProt Q8N3E9) | -0.426 |
| SIX5 (peptide sequence: GLGTQAPHTVLR, peptide start residue: 684) (UniProt Q8N196) | -0.255 |
| ANKRD52 (peptide sequence: QGYTAVHYAAAYGNR, peptide start residue: 549) (UniProt Q8NB46) | 0.406 |
| PHETA1 (peptide sequence: ELEQQLAAVR, peptide start residue: 122) (UniProt Q8N4B1) | 0.232 |
| AGGF1 (peptide sequence: DESFVGPTLSKEEK, peptide start residue: 541) (UniProt Q8N302) | -0.391 |
| CDC26 (peptide sequence: LDDIEEFENIRK, peptide start residue: 13) (UniProt Q8NHZ8) | -0.133 |
| NUP35 (peptide sequence: HVMSNTGNWMHIR, peptide start residue: 202) (UniProt Q8NFH5) | -0.346 |
| AKR7L (peptide sequence: SQLETSLKR, peptide start residue: 121) (UniProt Q8NHP1) | 0.0871 |
| UniProt Q8NEV8 (peptide sequence: MYIPHTDKSNDIK, peptide start residue: 781) | -0.634 |
| PACRGL (peptide sequence: TINPFGEQSR, peptide start residue: 66) (UniProt Q8N7B6) | -0.295 |

Not a retest: an excerpt of the list.

| Target | log2 fold change |
| --- | --- |
| AGGF1 (peptide sequence: DESFVGPTLSKEEK, peptide start residue: 541) (UniProt Q8N302) | -0.391 |
| CDC26 (peptide sequence: LDDIEEFENIRK, peptide start residue: 13) (UniProt Q8NHZ8) | -0.133 |
